For at least one compound, name, drawing or mass did not settle the structure. Some entries share one result that the patent states for a list of compounds.
How the values were obtained:
[1] = system: LPS-induced activation of the LAL enzyme (Limulus amoebocyte lysate); assay: LPS binding: inhibition of LPS-induced activation of LAL enzyme; type: biochemical; settings: at 10 (unit not given)
ESKAPE pathogens = settings: bacteria other than S. aureus ATCC 6538 and MRSA USA400
[2] = system: S. aureus (ATCC 6538) biofilm; assay: Disruption of established biofilms, crystal violet; type: cell-based; settings: S. aureus mature (24 hour) biofilm, 1 μM
Description: (§1) The compounds of the present disclosure were examined for their ability to disrupt bacterial biofilms using the microtiter dish biofilm formation assay. Briefly, overnight cultures of S. aureus (ATCC 6538) and S. epidermidis (ATCC 35984) were diluted 1:100 in TSB supplemented with 1% glucose. Overnight cultures of P. aeruginosa PAO1 and A. baumannii ATCC BAA-1605 were diluted 1:100 in M63 minimal medium supplemented with magnesium sulfate, glucose and casamino acids. Bacterial suspensions were incubated in 96-well plates at 37° C. for 24 hours. After removing media, wells were rinsed with PBS to remove planktonic bacteria before re-filling wells with fresh media. Compounds were added at specific concentrations and plates were incubated at 37° C. for 24 hours. After incubation, wells were washed and biofilms were stained with 0.5% (w/v) crystal violet for 30 minutes. The dye was solubilized with ethanol (95%) and the biofilm mass was quantified at OD595. Experiments were done in triplicate and repeated twice independently.

[3] = system: P. aeruginosa PAO1 biofilm; assay: Disruption of established biofilms, crystal violet; type: cell-based; settings: 32 μM
Description: as §1

[4] = system: S. epidermidis ATCC 35984 biofilm; assay: Disruption of established biofilms, crystal violet; type: cell-based; settings: S. epidermidis mature biofilm
Description: as §1

[5] = system: A. baumannii ATCC BAA-1605 biofilm; assay: Disruption of established biofilms, crystal violet; type: cell-based; settings: 32 μM
Description: as §1

For `NC[C@H]1O[C@H](O[C@H]2[C@H](O)[C@@H](O[C@H]3O[C@H](CO)[C@@H](O)[C@H](N)[C@H]3O)[C@H](N)C[C@@H]2N)[C@H](O)[C@@H](O)[C@@H]1O` [kanamycin], the “inhibition of the LAL enzyme” value [1] was 6.9%±3.5, the “MIC, range against kanamycin-resistant bacteria” value (ESKAPE pathogens) was 128 to >256 and the “disruption of biofilm mass” value [2] was “not effective”. The disruption of biofilm [3] was “not effective”, the “disruption of biofilm mass” value ([4]; concentration not given) was “did not disrupt or reduce the biofilm mass” and the “reduction of biofilm mass” value [5] was “not effective”.

In the case of `CC(=O)NC[C@H]1CN(c2ccc(N3CCOCC3)c(F)c2)C(=O)O1` [linezolid], the “disruption of biofilm mass” value ([4]; 64 μM) is reported as 25-30%.
